Reference: PubChem BioAssay AID1347076 (National Center for Advancing Translational Sciences (NCATS), 2019)
Values joined by “and” are separate entries in the source; they are usually repeats but may differ in a detail not shown here. Equal entries are not always repeated. About 13,000 (3.2%) of roughly 400,000 compounds were called active. Inconclusive results, whose numbers are uncertain, are shown with a selection of clear calls. The call rests on the fitted dose curve; in most records, active means well fitted cell-killing curve with a large enough effect; inconclusive means small, poorly fitted or top-dose-only effect, or effect the other way; inactive means flat fitted curve, though single readings scatter. A potency beside an inconclusive call is a rough fit, not a confirmed value.
Potency means the concentration at half of the fitted maximal effect.

Assay: qHTS assay for MDR1-selective chemotherapeutics: Primary screen using the drug-selected MDR subline cells KB-V1; further: nearly all actives have a fitted effect of over 60% in size
Conditions: KB-V1 MDR cells viability, CellTiter-Glo, 72 h; series mostly up to 46.1 µM
How it was run: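 In this primary screen, KB-V1 cells overexpressing P-gp are incubated with library compounds (lowest to highest concentration) for 72 h at 37 degrees C before a luminescent ATP viability read.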
For `C=CCn1c(SCC(=O)N2CCOCC2)nc2scc(-c3ccco3)c2c1=O`, the Potency was inconclusive: 25.9 µM [cytotoxic, single point].
For `COc1ccccc1-c1c(C)nn2c(-c3ccccc3)cc(C)nc12`, the Potency was inconclusive: 29.1 µM [cytotoxic, single point].
With `O=C(Nc1ccccc1N1CCN(C(=O)c2ccccc2)CC1)c1ccc2c(c1)OCO2` the Potency was inconclusive: 29.1 µM [cytotoxic, single point].
With `COc1cc(OC)c(OC)cc1/C=C/c1ccc2ccccc2n1` the Potency was inconclusive: 29.1 µM [cytotoxic, single point].
For `CCc1ccc(OCC(=O)N(Cc2ccc(C)cc2)Cc2ccco2)cc1`, the Potency was “inactive”.
For `Cc1oc(-c2ccccc2F)nc1CS(=O)(=O)CC(=O)N1CCOCC1`, the Potency was inconclusive: 2.31 µM [cytotoxic, full curve].
For `COc1ccc(NC(=O)c2cccnc2)c([N+](=O)[O-])c1`, the Potency was inconclusive: 18.4 µM [cytotoxic, single point].
With `O=C(Nc1ncc(Cc2ccc(Cl)cc2Cl)s1)c1ccc([N+](=O)[O-])cc1` the Potency was inconclusive: 2.59 µM [cytotoxic, full curve, poor fit].
With `CC(C)(C)C(=O)Nc1nnc(SCC(=O)NC2CC2)s1` the Potency was “inactive”.
For `O=C(Nc1ccc([N+](=O)[O-])cc1)c1cc(Cl)sc1Cl`, the Potency was “inactive”.
With `COc1ccc(C(=O)Nc2ccccc2C(N)=O)cc1` the Potency was “inactive”.
In the case of `C[C@@H]1CC=C[C@H]2[C@H]1C(=O)N(Cc1ccccc1)[C@H]2c1ccc2ccccc2c1/C=C/c1ccccc1`, the Potency is reported as inconclusive: 6.51 µM [cytotoxic, partial curve].
For `O=C(Nc1ccc(OC(F)(F)F)cc1)C1CCCN(S(=O)(=O)c2cccc3nonc23)C1` (stereo not drawn), the Potency was “inactive”.
For `CC(C)(C)c1ccc(NC(=O)C(=O)C2C(=O)Nc3ccccc32)cc1` (stereo not drawn), the Potency was “inactive”.
For `Cn1c(CCNC(=O)c2ccccc2)nc2cc(NC(=O)C3CCCCC3)ccc21`, the Potency was inconclusive: 16.4 µM [rising, single point].
For `CCOC(=O)C1=C(C)N(C[C@@H]2CC[C@@H](Cc3ccc(-c4ccccc4)cc3)O2)C(=O)NC1C1CC1` (stereo partly drawn), the Potency was “inactive”.
In the case of `CC(=O)N1c2ccc(S(=O)(=O)NCC3CCC(C(=O)N4CCCC(C)C4)CC3)cc2CC1C` (stereo not drawn), the Potency is reported as “inactive”.
In the case of `CC(CCCC(C)(C)O)NC(=O)c1cc(COc2ccc3ncccc3c2)on1` (stereo not drawn), the Potency is reported as active: 5.8 µM.
In the case of `COc1ccc(/C=N/NC(=O)CC2N=C(Cc3ccccc3)NNC2=O)cc1OC` (stereo not drawn), the Potency is reported as “inactive”.
With `COc1ccc(CNC(=O)c2cc(S(=O)(=O)N3CCCCC3)ccc2N2CCOCC2)cc1OC` the Potency was active: 23.1 µM.
In the case of `S=c1nc[nH]c2c1cnn2-c1ccccc1`, the Potency is reported as active: 8.2 µM.
With `O=C1c2cccc3c(N4CCCCC4)ccc(c23)C(=O)N1c1cccc(O)c1` the Potency was inconclusive: 13 µM [cytotoxic, partial curve, poor fit].
For `CCOC(=O)CSC1=C(C#N)C(c2ccco2)C(C(=O)Nc2cccc(C(F)(F)F)c2)=C(C)N1` (stereo not drawn), the Potency was inconclusive: 16.4 µM [cytotoxic, single point].
With `CN(CCOc1ccccc1)CC(=O)Nc1ccc(Cl)c(S(=O)(=O)N(C)C)c1` the Potency was inconclusive: 8.2 µM [cytotoxic, partial curve].
For `CCCCN(CC)S(=O)(=O)c1ccc2c(c1)CCCN2C(C)=O`, the Potency was inconclusive: 18.4 µM [cytotoxic, single point].
For `COc1ccc(C(=O)CSc2nnc(C3CCCCC3)n2N)c(OC)c1`, the Potency was inconclusive: 29.1 µM [cytotoxic, single point].
In the case of `Cc1ccc(C(=O)c2coc3cc([N+](=O)[O-])c(O)c([N+](=O)[O-])c23)cc1`, the Potency is reported as inconclusive: 25.9 µM [cytotoxic, single point].
In the case of `O=C1OC(c2ccccc2)(N(Nc2ccccc2)c2ccccc2)c2ccccc21` (stereo not drawn), the Potency is reported as inconclusive: 20.6 µM [cytotoxic, single point].
With `O=C(Oc1ccc([N+](=O)[O-])cc1)c1cncc(Br)c1` the Potency was inconclusive: 6.51 µM [rising, partial curve].
In the case of `CCOc1ccc(Br)cc1S(=O)(=O)Nc1ccc(C(=O)Nc2ccc(C)cc2)cc1`, the Potency is reported as active: 7.31 µM.
For `COCc1ccc(CN2CCCC(CO)(Cc3ccccc3C)C2)o1` (stereo not drawn), the Potency was inconclusive: 11.6 µM [cytotoxic, partial curve, poor fit].
With `Cc1ccccc1NC(=O)Cc1nc(COC(=O)c2nccnc2N)cs1` the Potency was “inactive”.
In the case of `Cc1ccc(N=C2C(=O)Nc3ccccc32)c(C)c1`, the Potency is reported as “inactive”.
With `COc1ccc(N2C(=O)C(C)(C)C2c2c(O)ccc3ccccc23)cc1` (stereo not drawn) the Potency was “inactive”.
For `CNCc1ccccc1OCC(=O)Nc1ccccc1OC`, the Potency was inconclusive: 14.6 µM [cytotoxic, partial curve].
With `COc1ccc(C(=O)NCCn2cc(SCC(=O)Nc3ccc(F)cc3)c3ccccc32)cc1` the Potency was inconclusive: 29.1 µM [cytotoxic, single point].
With `FC(F)(F)c1nc2ccccc2nc1N/N=C\c1ccccc1` the Potency was inconclusive: 29.1 µM [cytotoxic, single point].
With `CNC(=O)c1cc(Oc2ccc(NC(=O)Nc3ccc(Cl)c(C(F)(F)F)c3)cc2)ccn1` the Potency was inconclusive: 25.9 µM [cytotoxic, single point] and inconclusive: 29.1 µM [cytotoxic, single point].
With `O=S(=O)(c1ccccc1)c1nc(-c2ccco2)oc1NCc1cccnc1` the Potency was inconclusive: 4.11 µM [cytotoxic, partial curve].
For `O=C(O)c1ccc(-c2ccc(/C=C3\NC(=O)N(Cc4ccc(Cl)cc4)C3=O)o2)cc1`, the Potency was “inactive”.
With `CCOC(=O)C1(Cc2cccc(OC)c2)CCN(CC2CC=CCC2)CC1` (stereo not drawn) the Potency was inconclusive: 16.4 µM [cytotoxic, partial curve, poor fit].
In the case of `C=CCOc1nc2c(c(=O)n(Cc3ccc(Cl)c(Cl)c3)c(=O)n2C)n1C`, the Potency is reported as inconclusive: 0.731 µM [cytotoxic, full curve, poor fit].
For `COc1cccc2c1C(=O)c1c(O)c3c(c(O)c1C2=O)C[C@@](O)(C(C)=O)C[C@@H]3O[C@H]1C[C@H](N)[C@H](O)[C@H](C)O1`, the Potency was inconclusive: 10.3 µM [cytotoxic, partial curve, poor fit].
